Molecules are shown by their SMILES.

The text below walks through data of PMC11928863 (Computational and Structural Biotechnology Journal, 2025).

In this assay the target is T1, CD2068 (Clostridioides difficile, UniProt Q188D7).
T1 sequence (Q188D7 1-541): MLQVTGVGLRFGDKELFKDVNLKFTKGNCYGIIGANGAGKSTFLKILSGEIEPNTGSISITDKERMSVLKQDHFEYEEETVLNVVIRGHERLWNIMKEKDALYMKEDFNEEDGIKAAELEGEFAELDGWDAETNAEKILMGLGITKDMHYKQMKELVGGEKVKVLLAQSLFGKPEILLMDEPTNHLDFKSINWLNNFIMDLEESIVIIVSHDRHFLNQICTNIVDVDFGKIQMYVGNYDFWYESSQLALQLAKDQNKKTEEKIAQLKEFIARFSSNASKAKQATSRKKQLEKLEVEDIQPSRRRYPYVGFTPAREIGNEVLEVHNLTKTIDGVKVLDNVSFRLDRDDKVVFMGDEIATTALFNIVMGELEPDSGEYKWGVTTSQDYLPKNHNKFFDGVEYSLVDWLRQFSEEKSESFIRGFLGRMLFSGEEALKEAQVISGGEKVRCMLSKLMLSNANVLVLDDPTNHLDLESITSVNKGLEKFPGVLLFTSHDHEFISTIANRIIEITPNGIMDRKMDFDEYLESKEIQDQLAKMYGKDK
Nature of the assay: biochemical.

The molecule `CSc1ccc2c(c1)N(CCC1CCCCN1C)c1ccccc1S2` (stereo not shown) [thioridazine] displayed a Kd of 14.8 ± 7.6 µM.
